Reference: patent US20260108546A1 (ELI LILLY AND COMPANY, priority 2024, published 2026)
Structures can show the parent of a compound that is named as a salt. Some results were stated once for a whole list of compounds, not compound by compound.

target: T1, hGIP-R (Homo sapiens, UniProt P48546); test: Functional hGIP-R Assay (cAMP formation, HTRF); assay type: cell-based; conditions: cAMP formation in HEK-293 clonal cell lines expressing hGIP-R; 30 min at 37° C.; 0.1% bovine casein; relative EC50 vs. maximal response of human GIP (1-42) OH
T1 construct: expressed in transfected cells; host or cells: HEK-293 clonal cell lines
T1 sequence (P48546 22-466): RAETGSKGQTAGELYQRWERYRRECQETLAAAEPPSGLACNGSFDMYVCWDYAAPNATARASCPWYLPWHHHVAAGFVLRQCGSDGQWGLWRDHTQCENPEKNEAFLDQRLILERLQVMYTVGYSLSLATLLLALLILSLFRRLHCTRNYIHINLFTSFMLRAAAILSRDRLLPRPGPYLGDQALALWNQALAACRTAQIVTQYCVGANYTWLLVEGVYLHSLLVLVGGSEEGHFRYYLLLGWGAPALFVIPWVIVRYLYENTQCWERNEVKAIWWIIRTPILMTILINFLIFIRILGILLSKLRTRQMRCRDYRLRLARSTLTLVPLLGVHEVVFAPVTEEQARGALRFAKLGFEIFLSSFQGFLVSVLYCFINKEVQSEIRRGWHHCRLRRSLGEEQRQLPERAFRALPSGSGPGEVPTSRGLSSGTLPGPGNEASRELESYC
Description: Functional activity was determined using CAMP formation in HEK-293 clonal cell lines expressing hGIP-R. hGIP-R receptor expressing cells were treated with compound (20 point concentration-response curve in DMSO, 2-fold Labcyte Echo direct dilution, 384 well plate Corning Cat #3570) in DMEM (Gibco Cat #31053) supplemented with 1× GlutaMAX™ (Gibco Cat #35050), 0.1% bovine casein (Sigma C4765-10ML), 250 μM IBMX (3-Isobutyl-1-methylxanthine, Acros Cat #228420010) and 20 mM HEPES (Gibco Cat #15630) in a 20 μL assay volume (final DMSO concentration was 1%). After a 30 min incubation at 37° C., the resulting increase in intracellular cAMP was quantitatively determined using the Revvity CAMP Dynamic 2 HTRF Assay Kit (62AM4PEJ). Briefly, cAMP levels within the cell were detected by adding the cAMP-d2 conjugate in cell lysis buffer (10 μL) followed by the antibody anti-cAMP-Eu^3+-Cryptate, also in cell lysis buffer (10 μL). The resulting competitive assay was incubated for at least 60 min at RT, then detected using a BMG Labtech PHERAstar FSX instrument with excitation at 320 nm and emission at 665 nm and 620 nm. PHERAstar units (emission at 665 nm/620 nm*10,000) are inversely proportional to the amount of cAMP present and were converted to nM cAMP per well using a CAMP standard curve. The amount of cAMP generated (nM) in each well was converted to a percent of the maximal response observed with human GIP (1-42) OH. A relative EC50 value and percent top (Emax) were derived by non-linear regression analysis using the percent maximal response vs. the concentration of compound added, fitted to a four-parameter logistic equation.

Q: Which EC50 does the source give for COCc1cn2cc(-c3ccc([C@H]4C[C@@]45CCN([C@H](Cc4cnn(C(F)F)c4)C(=O)NC(C)(C)Cn4nc(C(F)(F)F)cc4-c4ccc(C(C)(C)O)nc4)C5=O)c(C)n3)cnc2n1 [Example 168, (R)-3-(1-(difluoromethyl)-1H-pyrazol-4-yl)-N-(1-(5-(6-(2-hydroxypropan-2-yl)pyridin-3-yl)-3-(trifluoromethyl)-1H-pyrazol-1-yl)-2-methylpropan-2-yl)-2-((1R,3R)-1-(6-(2-(methoxymethyl)imidazo[1,2-a]pyrimidin-6-yl)-2-methylpyridin-3-yl)-4-oxo-5-azaspiro[2.4]heptan-5-yl)propanamide] here?
A: ≤ 300 nM

Q: For [2H]C([2H])([2H])n1cc(-c2cc(C(F)(F)F)nn2CC(C)(C)NC(=O)[C@@H](Cc2cnn(C(F)F)c2)N2CC[C@@]3(C[C@@H]3c3ccc(-c4cnc5nn(C)cc5c4)cc3)C2=O)ccc1=O [Example 120, (R)-3-(1-(Difluoromethyl)-1H-pyrazol-4-yl)-N-(2-methyl-1-(5-(1-(methyl-d3)-6-oxo-1,6-dihydropyridin-3-yl)-3-(trifluoromethyl)-1H-pyrazol-1-yl)propan-2-yl)-2-((1R,3R)-1-(4-(2-methyl-2H-pyrazolo[3,4-b]pyridin-5-yl)phenyl)-4-oxo-5-azaspiro[2.4]heptan-5-yl)propanamide], which EC50 is on record?
A: ≤ 300 nM

Q: Which EC50 does the source give for Cn1cc2cc(-c3ccc([C@H]4C[C@@]45CCN([C@H](Cc4cnn(C(F)F)c4)C(=O)NC(C)(C)Cn4nc(C(F)(F)F)cc4-c4cccn(CC(N)=O)c4=O)C5=O)cc3)cnc2n1 [Example 126, (R)-N-(1-(5-(1-(2-Amino-2-oxoethyl)-2-oxo-1,2-dihydropyridin-3-yl)-3-(trifluoromethyl)-1H-pyrazol-1-yl)-2-methylpropan-2-yl)-3-(1-(difluoromethyl)-1H-pyrazol-4-yl)-2-((1R,3R)-1-(4-(2-methyl-2H-pyrazolo[3,4-b]pyridin-5-yl)phenyl)-4-oxo-5-azaspiro[2.4]heptan-5-yl)propanamide] here?
A: ≤ 300 nM

Q: With COc1ccc(-c2ccc([C@H]3C[C@@]34CCN([C@H](Cc3cnn(C(F)F)c3)C(=O)NC(C)(C)Cn3nc(C(F)(F)F)cc3-c3ccn(C5CC5)c(=O)c3)C4=O)c(C)n2)cn1 [Example 172, (R)-N-(1-(5-(1-cyclopropyl-2-oxo-1,2-dihydropyridin-4-yl)-3-(trifluoromethyl)-1H-pyrazol-1-yl)-2-methylpropan-2-yl)-3-(1-(difluoromethyl)-1H-pyrazol-4-yl)-2-((1R,3R)-1-(6′-methoxy-6-methyl-[2,3′-bipyridin]-5-yl)-4-oxo-5-azaspiro[2.4]heptan-5-yl)propanamide] as the compound, how does the EC50 read?
A: ≤ 300 nM

Q: How did the EC50 turn out when Cn1cc(C[C@@H](NC(=O)[C@H]2C[C@@H]2c2ccc(-c3cnc4nn(C)cc4c3)cc2F)C(=O)NC(C)(C)Cn2nc(C(F)(F)F)cc2-c2cn[nH]n2)cn1 [Example 93, (1S,2S)-N—((R)-1-((1-(5-(2H-1,2,3-Triazol-4-yl)-3-(trifluoromethyl)-1H-pyrazol-1-yl)-2-methylpropan-2-yl)amino)-3-(1-methyl-1H-pyrazol-4-yl)-1-oxopropan-2-yl)-2-(2-fluoro-4-(2-methyl-2H-pyrazolo[3,4-b]pyridin-5-yl)phenyl)cyclopropane-1-carboxamide] was run?
A: ≤ 300 nM

Q: How did the EC50 turn out when Cc1nc(-c2ccc(C(C)(C)O)nc2)ccc1[C@H]1C[C@@]12CCN([C@H](Cc1cnn(C(F)F)c1)C(=O)NC(C)(C)Cn1nc(C(F)(F)F)cc1-c1ccn(C3CC3)c(=O)c1)C2=O [Example 171, (R)-N-(1-(5-(1-cyclopropyl-2-oxo-1,2-dihydropyridin-4-yl)-3-(trifluoromethyl)-1H-pyrazol-1-yl)-2-methylpropan-2-yl)-3-(1-(difluoromethyl)-1H-pyrazol-4-yl)-2-((1R,3R)-1-(6′-(2-hydroxypropan-2-yl)-6-methyl-[2,3′-bipyridin]-5-yl)-4-oxo-5-azaspiro[2.4]heptan-5-yl)propanamide] was run?
A: ≤ 300 nM

Q: With Cc1nc(-c2cnc3nc(C4CC4)cn3c2)ccc1[C@H]1C[C@@]12CCN([C@H](Cc1cnn(C(F)F)c1)C(=O)NC(C)(C)Cn1nc(C(F)(F)F)cc1-c1cnc(C(C)(C)OP(=O)(O)O)nc1)C2=O [Example 196, 2-(5-(1-(2-((R)-2-((1R,3R)-1-(6-(2-Cyclopropylimidazo[1,2-a]pyrimidin-6-yl)-2-methylpyridin-3-yl)-4-oxo-5-azaspiro[2.4]heptan-5-yl)-3-(1-(difluoromethyl)-1H-pyrazol-4-yl)propanamido)-2-methylpropyl)-3-(trifluoromethyl)-1H-pyrazol-5-yl)pyrimidin-2-yl)propan-2-yl dihydrogen phosphate, ammonia salt] as the compound, how does the EC50 read?
A: ≤ 300 nM

Q: For Cn1cc(C[C@@H](NC(=O)[C@H]2C[C@@H]2c2ccc(-c3cnc4nn(C)cc4c3)cc2)C(=O)NC(C)(C)Cn2nc(C(F)(F)F)cc2-c2ccn(C)c(=O)c2)cn1 [Example 52, (1S,2S)-N—((R)-1-((2-Methyl-1-(5-(1-methyl-2-oxo-1,2-dihydropyridin-4-yl)-3-(trifluoromethyl)-1H-pyrazol-1-yl)propan-2-yl)amino)-3-(1-methyl-1H-pyrazol-4-yl)-1-oxopropan-2-yl)-2-(4-(2-methyl-2H-pyrazolo[3,4-b]pyridin-5-yl)phenyl)cyclopropane-1-carboxamide], which EC50 is on record?
A: ≤ 300 nM

Q: For Cc1ccc2cc(-c3ccc([C@H]4C[C@@H]4C(=O)N[C@H](Cc4cnn(C)c4)C(=O)NC(C)(C)Cn4nc(C(F)(F)F)cc4-c4cn[nH]n4)cc3)cnc2n1 [Example 94, (1S,2S)-N—((R)-1-((1-(5-(2H-1,2,3-Triazol-4-yl)-3-(trifluoromethyl)-1H-pyrazol-1-yl)-2-methylpropan-2-yl)amino)-3-(1-methyl-1H-pyrazol-4-yl)-1-oxopropan-2-yl)-2-(4-(7-methyl-1,8-naphthyridin-3-yl)phenyl)cyclopropane-1-carboxamide], which EC50 is on record?
A: ≤ 300 nM

Q: How did the EC50 turn out when Cn1cc(-c2ccc([C@H]3C[C@@]34CCN([C@H](Cc3cnn(C(F)F)c3)C(=O)NC(C)(C)Cn3nc(C(F)(F)F)cc3-c3cn[nH]n3)C4=O)c(Cl)c2)cnc1=O [Example 154, (R)—N-(1-(5-(2H-1,2,3-Triazol-4-yl)-3-(trifluoromethyl)-1H-pyrazol-1-yl)-2-methylpropan-2-yl)-2-((1S,3R)-1-(2-chloro-4-(1-methyl-2-oxo-1,2-dihydropyrimidin-5-yl)phenyl)-4-oxo-5-azaspiro[2.4]heptan-5-yl)-3-(1-(difluoromethyl)-1H-pyrazol-4-yl)propanamide] was run?
A: ≤ 300 nM

Q: With Cc1nc(-c2cnc3nc(C4CC4)cn3c2)ccc1[C@H]1C[C@@]12CCN([C@H](Cc1cnn(C(F)F)c1)C(=O)NC(C)(C)Cn1nc(C(F)(F)F)cc1-c1cc(F)c(=O)n(C)c1)C2=O [Example 170, (R)-2-((1R,3R)-1-(6-(2-cyclopropylimidazo[1,2-a]pyrimidin-6-yl)-2-methylpyridin-3-yl)-4-oxo-5-azaspiro[2.4]heptan-5-yl)-3-(1-(difluoromethyl)-1H-pyrazol-4-yl)-N-(1-(5-(5-fluoro-1-methyl-6-oxo-1,6-dihydropyridin-3-yl)-3-(trifluoromethyl)-1H-pyrazol-1-yl)-2-methylpropan-2-yl)propanamide] as the compound, how does the EC50 read?
A: ≤ 300 nM

Q: How did the EC50 turn out when Cn1cc(C[C@@H](NC(=O)[C@H]2C[C@@H]2c2ccc(-c3cnc4nn(C)cc4c3)cc2)C(=O)NC(C)(C)Cn2nc(C(F)(F)F)cc2-c2ccc(=O)[nH]c2)cn1 [Example 59, (1S,2S)-N-((R)-1-((2-Methyl-1-(5-(6-oxo-1,6-dihydropyridin-3-yl)-3-(trifluoromethyl)-1H-pyrazol-1-yl)propan-2-yl)amino)-3-(1-methyl-1H-pyrazol-4-yl)-1-oxopropan-2-yl)-2-(4-(2-methyl-2H-pyrazolo[3,4-b]pyridin-5-yl)phenyl) cyclopropane-1-carboxamide] was run?
A: ≤ 300 nM

Q: With [2H]C([2H])([2H])n1cc(C[C@H](C(=O)NC(C)(C)Cn2nc(C(F)(F)F)cc2-c2cnc(C)nc2)N2CC[C@@]3(C[C@@H]3c3ccc(-c4cnc5nn(C)cc5c4)cc3Cl)C2=O)cn1 (single isomer, unassigned; isomer 1) [Example 114] as the compound, how does the EC50 read?
A: ≤ 300 nM
